Data: PubChem BioAssay AID485298 (National Center for Advancing Translational Sciences (NCATS), 2010)
Out of some 320,000 compounds screened, about 740 (0.23%) were called active. The shares of active, inactive and inconclusive entries below differ from those in the screen. Calls follow the shape of the dose curve; as a rule, active = well fitted activation curve with a large enough effect; inconclusive = small, poorly fitted or top-dose-only effect; inactive = no such curve, though single readings can be large or run the other way. Potencies of inconclusive entries are doubtful fits and often do not repeat.

Test: qHTS Assay for Small Molecule Inhibitors of Mitochondrial Division or Activators of Mitochondrial Fusion; also: nearly all actives have a fitted effect of over 45% in size
Conditions: S. cerevisiae fusion-defective mutant growth rescue, CellTiterGlo 48 h; series mostly up to 46.1 µM
Procedure, shortened: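 Read-out: ATP-based luminescence (CellTiterGlo, 10 min ambient) reporting growth of fusion-defective ts yeast after 48 hours at 37C on glycerol/ethanol YPEG medium in the presence of compound.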
Potency is read from the fitted curve at half-maximal effect.

**Q.** Which Potency does the source give for O=C(CC1C(=O)CCCC1=O)c1ccccc1 here?
**A.** inactive

**Q.** With COc1ccccc1N1CCN(C(=O)c2cccc(Oc3ccccc3)c2)CC1 as the compound, how does the Potency read?
**A.** inactive

**Q.** With COc1ccc(NS(=O)(=O)c2ccc3c(c2)CCC(=O)N3)cc1O as the compound, how does the Potency read?
**A.** inactive

**Q.** For O=C(c1cc2sccc2n1Cc1ccc(F)cc1)N1CCCc2ccccc21, which Potency is on record?
**A.** inconclusive: 15.8 µM [activator, partial curve]

**Q.** For O=C(Nc1nc2ccc(F)cc2s1)c1ccccn1, which Potency is on record?
**A.** inactive

**Q.** Which Potency does the source give for NC(=O)C1CCN(c2ncc(C(F)(F)F)cc2Cl)CC1 here?
**A.** inconclusive: 5.62 µM [activator, single point]

**Q.** Which Potency does the source give for O=C(CSc1ncccc1C(=O)O)Nc1ccc2c(c1)OCCO2 here?
**A.** inactive

**Q.** With COc1cc(NC(=O)COC(=O)CSc2cc(C)ccc2C)c(C)cc1[N+](=O)[O-] as the compound, how does the Potency read?
**A.** inactive

**Q.** For Clc1ccc(CSc2nnc(CNc3cccc(Cl)c3)o2)cc1, which Potency is on record?
**A.** inconclusive: 15.8 µM [activator, partial curve]

**Q.** With CN(C)S(=O)(=O)c1cccc(NC(=O)CSc2cccc3cccnc23)c1 as the compound, how does the Potency read?
**A.** inactive

**Q.** For COc1ccc2nc(C)cc(SCC(=O)NNC(=O)COc3ccc(C)cc3)c2c1, which Potency is on record?
**A.** inactive

**Q.** For Cc1nnc(-c2ccc(Oc3ccc(C)c(C)c3)c([N+](=O)[O-])c2)o1, which Potency is on record?
**A.** inconclusive: 22.4 µM [activator, single point]

**Q.** Which Potency does the source give for C1=C(c2ccccc2)Nc2ccccc2N=C1c1ccccc1 here?
**A.** inconclusive: 10 µM [activator, partial curve]

**Q.** Which Potency does the source give for CCc1ccc(NSc2ccccc2[N+](=O)[O-])cc1 here?
**A.** inconclusive: 8.91 µM [activator, partial curve]

**Q.** For COc1ccccc1N(CC(O)Cn1c2ccccc2c2ccccc21)S(=O)(=O)c1ccccc1 (stereo unspecified), which Potency is on record?
**A.** inconclusive: 35.5 µM [activator, single point]

**Q.** For O=C(NC(=S)Nc1ccccc1N1CCN(C(=O)c2ccccc2)CC1)c1ccccc1F, which Potency is on record?
**A.** inactive

**Q.** Which Potency does the source give for Cc1ccc(Cn2c(/C=C/c3ccco3)nc3ccccc32)cc1 here?
**A.** inconclusive: 35.5 µM [activator, single point]

**Q.** For Cc1ccc(-c2c(C(=O)NCc3ccc(F)cc3)oc(=O)c3ccccc23)cc1, which Potency is on record?
**A.** inconclusive: 11.2 µM [activator, partial curve]

**Q.** Which Potency does the source give for CC(C)(C)c1ccc(OC2=CS(=O)(=O)c3ccccc32)cc1 here?
**A.** inconclusive: 10 µM [activator, partial curve]

**Q.** With COc1ccc(Nc2nc(C)nc3sc4c(c23)CCC4)cc1O as the compound, how does the Potency read?
**A.** inactive

**Q.** With COc1ccc2oc(-c3ccccc3)c(C(=O)O)c2c1 as the compound, how does the Potency read?
**A.** inconclusive: 11.2 µM [activator, partial curve]

**Q.** With O=C(C1CCN(c2nnc(N3CCCC3=O)s2)CC1)N1CCN(c2cccc(C(F)(F)F)c2)CC1 as the compound, how does the Potency read?
**A.** inconclusive: 31.6 µM [activator, single point]

**Q.** For CCCc1cc(C(=O)OC)c2ccccc2n1, which Potency is on record?
**A.** inconclusive: 7.94 µM [activator, partial curve]

**Q.** Which Potency does the source give for COC(=O)Cn1ccc2cc(S(=O)(=O)N3CCCCCC3)ccc21 here?
**A.** inactive

**Q.** With Cc1ccc(CN2CCSCC2)c(C)c1 as the compound, how does the Potency read?
**A.** inconclusive: 6.31 µM [activator, partial curve]

**Q.** For Cc1ccc(C)c(NC(=O)c2ccccc2Sc2ccc([N+](=O)[O-])cc2Cl)c1, which Potency is on record?
**A.** inconclusive: 7.94 µM [activator, partial curve]

**Q.** With CN1/C(=C\C(=O)CSc2nnc(NCc3ccccc3)s2)C(C)(C)c2ccccc21 as the compound, how does the Potency read?
**A.** inconclusive: 31.6 µM [activator, single point]

**Q.** Which Potency does the source give for N#Cc1nc(COc2ccc(F)cc2)oc1N1CCN(Cc2ccccc2)CC1 here?
**A.** inconclusive: 20 µM [activator, single point]

**Q.** With COc1cc(SC)ccc1C(=O)NCCOc1ccc(F)cc1 as the compound, how does the Potency read?
**A.** inconclusive: 22.4 µM [activator, single point]

**Q.** With CCNC(=O)/C(C#N)=C/c1c(N(Cc2ccccc2)Cc2ccccc2)nc2ccccn2c1=O as the compound, how does the Potency read?
**A.** inconclusive: 10 µM [activator, partial curve]

**Q.** Which Potency does the source give for O=Cc1cccn1-c1ccc(O)cc1 here?
**A.** inconclusive: 22.4 µM [activator, single point]

**Q.** With CCCC(=O)Nc1cccc(-c2cn3cccnc3n2)c1 as the compound, how does the Potency read?
**A.** inconclusive: 25.1 µM [activator, partial curve]

**Q.** With O=C(O)c1ccc(NC2OC[C@@H](O)[C@H](O)[C@H]2O)cc1 (stereo partly specified) as the compound, how does the Potency read?
**A.** inconclusive: 5.62 µM [activator, single point]

**Q.** Which Potency does the source give for Clc1cccc(-c2ccc3ncnc(NCc4cccs4)c3c2)c1 here?
**A.** inconclusive: 35.5 µM [activator, single point]

**Q.** With COc1cccc(NC(=O)CCNC(=O)c2ccccc2Cl)c1 as the compound, how does the Potency read?
**A.** inactive

**Q.** Which Potency does the source give for CC(C)c1ccc(C2C3CSCC=C3C(C#N)=C(N)C2(C#N)C#N)cc1 (stereo unspecified) here?
**A.** inconclusive: 12.6 µM [activator, partial curve]

**Q.** With O=C(/C=C/c1ccc(Cl)cc1)N1CCN(c2c(Cl)cccc2[N+](=O)[O-])CC1 as the compound, how does the Potency read?
**A.** inconclusive: 14.1 µM [activator, single point]

**Q.** With CC1=CC2=NC(=O)/C(=C\c3cccn3CCOc3ccc(C)c(C)c3)C(=N)N2O1 as the compound, how does the Potency read?
**A.** inconclusive: 35.5 µM [activator, single point]

**Q.** Which Potency does the source give for S=C(NCCc1ccncc1)Nc1ccccc1 here?
**A.** inactive

**Q.** With COc1ccccc1C1=NC(c2ccc(F)cc2)N=C1C (stereo unspecified) as the compound, how does the Potency read?
**A.** inconclusive: 35.5 µM [activator, single point]

**Q.** For COC(=O)c1nn(-c2ccc3c(c2)OCO3)cc1O, which Potency is on record?
**A.** inactive

**Q.** With CCNC(=S)N(CCc1c(C)[nH]c2ccc(Cl)cc12)Cc1ccco1 as the compound, how does the Potency read?
**A.** inconclusive: 35.5 µM [activator, single point]

**Q.** With CCOC(=O)c1c(C)[nH]c(C)c1C(=O)COC(=O)/C=C/c1ccc(Cl)cc1 as the compound, how does the Potency read?
**A.** inconclusive: 17.8 µM [activator, partial curve]

**Q.** Which Potency does the source give for CCCCSc1nnc(-c2ccc(C)cc2)c2ccccc12 here?
**A.** inconclusive: 8.91 µM [activator, partial curve]

**Q.** For O=S(=O)(c1ccc(Br)cc1)N1CCCN(Cc2cccc(F)c2)CC1, which Potency is on record?
**A.** inconclusive: 7.94 µM [activator, partial curve]

**Q.** With Cc1cc(NC(=O)CSc2nnc3c(C)cc4c(C)ccc(C)c4n23)no1 as the compound, how does the Potency read?
**A.** inactive
